# Measured values taken from PubChem BioAssay AID2685 (National Center for Advancing Translational Sciences (NCATS), 2010).
# In all, about 320,000 compounds went through this assay and about 2,100 (0.66%) were called active. The inconclusive results got no clear call from the source; some entries with a clear call stand among them for comparison. The call rests on the fitted dose curve; in most records, active means well fitted inhibition curve with a large enough effect in the signal ratio, with a control signal flat (not every such curve was filed as active); inconclusive means small, poorly fitted or top-dose-only effect, or effect the other way, or a change in a side signal; inactive means flat fitted curve, though single readings scatter; the % refers to the signal ratio. Potencies beside an inconclusive call are fits to weak or partial responses and may not hold up.
# Test: qHTS Assay for Lipid Storage Modulators in Drosophila S3 Cells
# Details: BODIPY lipid droplet fluorescence, 18-24 h, cells fed with added oleic acid; lipid storage change, negative = inhibition: at 46.1 µM (top of the series) unless noted
# Method in brief: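 Drosophila S3 cells loaded with oleic acid (400 uM, as added) and compounds at several concentrations; lipid droplets imaged by 488-nm laser-scanning cytometry, 500–530 nm intensity and object ratio to cell channel. Percent activity normalized to 20 uM Triacsin C.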
# On the % scale 0 is the no-effect control and ±100 the full control effect; potency means the concentration at half of the fitted maximal effect.
SMILES,Potency,"lipid storage change, negative = inhibition"
CCCN1Cc2cccc(C(=O)NC(CC(=O)OCC)c3ccc(OC(C)C)cc3)c2C1=O (stereo unspecified),"inconclusive: 29.1 µM [falling, single point]",
CCNC(=O)CC1SC(=Nc2ccc(Cl)cc2)N(CC)C1=O (stereo unspecified),,inconclusive: -25.1%
COc1cc([N+](=O)[O-])ccc1N1C(=O)CC(Sc2nccc(C)n2)C1=O (stereo unspecified),,inconclusive: -23.4%
O=C1CC(=O)N(Cc2cccs2)C(=O)N1,"inconclusive: 6.51 µM [falling, single point]",
CCOCCCN(C)C1CCN(C(=O)c2oc3ccccc3c2NC(=O)c2ccc(F)cc2)CC1,,inconclusive: -4.48%
CCn1c(C)nc2cc(C(=O)NNC(=S)Nc3ccc(Cl)cc3)ccc21,,inconclusive: 6.07%
Cc1noc(C)c1S(=O)(=O)N1CCCC(C(=O)Nc2nccs2)C1 (stereo unspecified),,inconclusive: -19.3%
COC(=O)C1=CN(Cc2ccccc2)C=C(C(=O)OC)C1c1cc(F)ccc1F,,inconclusive: -12.8%
O=C(NCc1ccccc1)N1CCN(c2ccc(Cl)c(Cl)c2)CC1,"inconclusive: 0.103 µM [activator, full curve, poor fit]",
COc1ccc(NC(=O)CC(=O)Nc2ccc(OC)cc2OC)c(OC)c1,"inconclusive: 4.11 µM [rising, partial curve]",
O=C(Nc1c(C(=O)O)[nH]c2ccccc12)c1cccc(C(F)(F)F)c1,,inconclusive: 15.1%
O=c1[nH]c(N2CCOCC2)nc2ccccc12,"inconclusive: 1.84 µM [activator, full curve, poor fit]",
COC(C[C@@H]1O[C@@H]1[C@H](O)COCc1ccccc1)OC,,inconclusive: 16.6%
O=C(Cn1cnc([N+](=O)[O-])c1)Nc1cc(Oc2ccc(Cl)cc2Cl)cc([N+](=O)[O-])c1,"inconclusive: 29.1 µM [cytotoxic, single point]",
Cc1ncoc1C(=O)NC1CC(C)(C)Cc2c1cnn2-c1ccc(F)cc1 (stereo unspecified),"inconclusive: 0.092 µM [falling, full curve, poor fit]",
Cn1c(-c2nonc2NC(=O)c2ccc(C(C)(C)C)cc2)nc2ccccc21,"inconclusive: 1.03 µM [rising, full curve]",
CCC1Oc2ccccc2N(CC(=O)NC2CC2)C1=O (stereo unspecified),"inconclusive: 0.206 µM [activator, single point]",
O=C(Nc1ccc(F)cc1)c1cc(S(=O)(=O)N2CCCCC2)ccc1F,"inconclusive: 5.17 µM [activator, partial curve]",
CCC(C)/C(C)=N/NC(=O)c1cn(-c2ccccc2)nc1-c1ccccc1 (stereo unspecified),,inconclusive: 21.7%
CCOC(=O)c1c(CC(C)C)csc1NC(=O)COC(=O)c1ccc(O)cc1,,inconclusive: -22%
COc1ccc(-n2c(C)cc(SC)c(C(C)=O)c2=S)cc1,"inconclusive: 0.731 µM [falling, single point]",
Cc1c([N+](=O)[O-])c([N+](=O)[O-])nn1CC(=O)NCc1cccnc1,,inconclusive: -15.2%
CCCC(C(=O)NC1CCCC1)N(CC1CCCO1)C(=O)CNS(=O)(=O)c1ccccc1 (stereo unspecified),,inconclusive: 42.4%

SMILES,Potency,"lipid storage change, negative = inhibition"
COc1ccccc1OCC(=O)Nc1ccncc1,"inconclusive: 23.1 µM [falling, single point]",
COc1ccc2oc(C(=O)OCC(=O)Nc3ccc(N4CCOCC4)cc3)c(C)c2c1,"inconclusive: 8.2 µM [activator, partial curve, poor fit]",
Cn1cnnc1SCc1ccc(C#N)cc1,,inconclusive: -10.4%
C[C@H](NC(=O)CCCOc1ccc(Cl)cc1Cl)c1nnc2ccccn12,active: 18.4 µM,
Cc1ccc(/C=N\NC(=O)Cn2c(C)nc3ccccc32)o1,,inconclusive: -0.643%
CC(=O)N(C)c1ccc(OCC(O)CN(c2ccccc2C)S(=O)(=O)c2ccc(C)cc2)cc1 (stereo unspecified),,inconclusive: -47%
CC(C)OC(=O)c1c(NC(=O)c2cnn3c2NC(c2ccccc2)CC3C(F)F)sc2c1CCCC2 (stereo unspecified),,inconclusive: -15.5%
O=C(NNS(=O)(=O)c1ccc(F)cc1)c1ccc(S(=O)(=O)N2CCCCC2)cc1,,inconclusive: 41.8%
COc1cccc(-c2csc(N3CCN(C(=O)C4CCCCC4)CC3)n2)c1,,inconclusive: 32.3%
CCCCn1c(N)c(N(CCC(C)C)C(=O)COC(=O)c2ccccc2)c(=O)[nH]c1=O,,inconclusive: -14.2%
O=C1CC(c2ccncc2)c2cc3c(cc2N1)OCCO3 (stereo unspecified),,inconclusive: 29.9%
Cc1cccc(C)c1NC(=O)Cn1c(=O)n(CCCC(=O)NC2CCN(Cc3ccccc3)CC2)c(=O)c2ccccc21,active: 4.11 µM,
CCN=C1SC(C(=O)NCCc2ccccc2)CC(=O)N1CC (stereo unspecified),,inconclusive: 20.8%
CCN(CC)CCNC(=O)c1ccc(NC(=O)c2cn(-c3ccccc3)nc2-c2cccs2)cc1,,inconclusive: -64.8%
CC(C)CC(NC(N)=O)C(=O)Nc1ccc(Cl)c(Cl)c1 (stereo unspecified),,inconclusive: 30.6%
CC1CN(S(=O)(=O)c2ccccc2)C(C)N1C(=O)N1CCOCC1 (stereo unspecified),,inconclusive: 46.1%
COc1ccc(N(C)C(=O)c2ccc3c(Cl)c4c(nc3c2)CCCC4)c(OC)c1,,inconclusive: 180%
O=S(=O)(c1ccc2c(c1)C(=NO)c1cc(S(=O)(=O)N3CCCCC3)ccc1-2)N1CCCCC1,"inconclusive: 29.1 µM [falling, single point]",
CCOC(=O)C1=C(C)Nc2nc(SC)nn2C1c1ccc(C(=O)OC)cc1 (stereo unspecified),,inconclusive: 15.7%
Cn1cccc1-c1nc2ccc(NC(=O)c3ccc([N+](=O)[O-])cc3)cc2[nH]1,"inconclusive: 6.51 µM [rising, single point]",
COC(=O)c1c(C)[nH]c(C(=O)CC#N)c1C,"inconclusive: 1.03 µM [falling, full curve, poor fit]",
Cc1ccccc1NC(=O)c1cc2ccccc2o1,"inconclusive: 3.26 µM [activator, full curve]",
Cc1ccc(C(=O)c2cc([N+](=O)[O-])ccc2N2CCOCC2)cc1C,,inconclusive: -22%

# Retrieved one by one from above, 4 records:
SMILES,Potency,"lipid storage change, negative = inhibition"
CC(C)CC(NC(N)=O)C(=O)Nc1ccc(Cl)c(Cl)c1 (stereo unspecified),,inconclusive: 30.6%
Cc1c([N+](=O)[O-])c([N+](=O)[O-])nn1CC(=O)NCc1cccnc1,,inconclusive: -15.2%
O=C(NNS(=O)(=O)c1ccc(F)cc1)c1ccc(S(=O)(=O)N2CCCCC2)cc1,,inconclusive: 41.8%
CCN(CC)CCNC(=O)c1ccc(NC(=O)c2cn(-c3ccccc3)nc2-c2cccs2)cc1,,inconclusive: -64.8%
